Test results from PMC12046049.
These are yes or no findings as the source states them, for the method shown. For part of these data: In cells and extracts the contact can be indirect. Some results given as binding are weak or reduced against the parent protein; the word gives no strength.

Protein sequences, listed by entry. Tags and fused reporters are not part of them.
UniProt Q8VHX6: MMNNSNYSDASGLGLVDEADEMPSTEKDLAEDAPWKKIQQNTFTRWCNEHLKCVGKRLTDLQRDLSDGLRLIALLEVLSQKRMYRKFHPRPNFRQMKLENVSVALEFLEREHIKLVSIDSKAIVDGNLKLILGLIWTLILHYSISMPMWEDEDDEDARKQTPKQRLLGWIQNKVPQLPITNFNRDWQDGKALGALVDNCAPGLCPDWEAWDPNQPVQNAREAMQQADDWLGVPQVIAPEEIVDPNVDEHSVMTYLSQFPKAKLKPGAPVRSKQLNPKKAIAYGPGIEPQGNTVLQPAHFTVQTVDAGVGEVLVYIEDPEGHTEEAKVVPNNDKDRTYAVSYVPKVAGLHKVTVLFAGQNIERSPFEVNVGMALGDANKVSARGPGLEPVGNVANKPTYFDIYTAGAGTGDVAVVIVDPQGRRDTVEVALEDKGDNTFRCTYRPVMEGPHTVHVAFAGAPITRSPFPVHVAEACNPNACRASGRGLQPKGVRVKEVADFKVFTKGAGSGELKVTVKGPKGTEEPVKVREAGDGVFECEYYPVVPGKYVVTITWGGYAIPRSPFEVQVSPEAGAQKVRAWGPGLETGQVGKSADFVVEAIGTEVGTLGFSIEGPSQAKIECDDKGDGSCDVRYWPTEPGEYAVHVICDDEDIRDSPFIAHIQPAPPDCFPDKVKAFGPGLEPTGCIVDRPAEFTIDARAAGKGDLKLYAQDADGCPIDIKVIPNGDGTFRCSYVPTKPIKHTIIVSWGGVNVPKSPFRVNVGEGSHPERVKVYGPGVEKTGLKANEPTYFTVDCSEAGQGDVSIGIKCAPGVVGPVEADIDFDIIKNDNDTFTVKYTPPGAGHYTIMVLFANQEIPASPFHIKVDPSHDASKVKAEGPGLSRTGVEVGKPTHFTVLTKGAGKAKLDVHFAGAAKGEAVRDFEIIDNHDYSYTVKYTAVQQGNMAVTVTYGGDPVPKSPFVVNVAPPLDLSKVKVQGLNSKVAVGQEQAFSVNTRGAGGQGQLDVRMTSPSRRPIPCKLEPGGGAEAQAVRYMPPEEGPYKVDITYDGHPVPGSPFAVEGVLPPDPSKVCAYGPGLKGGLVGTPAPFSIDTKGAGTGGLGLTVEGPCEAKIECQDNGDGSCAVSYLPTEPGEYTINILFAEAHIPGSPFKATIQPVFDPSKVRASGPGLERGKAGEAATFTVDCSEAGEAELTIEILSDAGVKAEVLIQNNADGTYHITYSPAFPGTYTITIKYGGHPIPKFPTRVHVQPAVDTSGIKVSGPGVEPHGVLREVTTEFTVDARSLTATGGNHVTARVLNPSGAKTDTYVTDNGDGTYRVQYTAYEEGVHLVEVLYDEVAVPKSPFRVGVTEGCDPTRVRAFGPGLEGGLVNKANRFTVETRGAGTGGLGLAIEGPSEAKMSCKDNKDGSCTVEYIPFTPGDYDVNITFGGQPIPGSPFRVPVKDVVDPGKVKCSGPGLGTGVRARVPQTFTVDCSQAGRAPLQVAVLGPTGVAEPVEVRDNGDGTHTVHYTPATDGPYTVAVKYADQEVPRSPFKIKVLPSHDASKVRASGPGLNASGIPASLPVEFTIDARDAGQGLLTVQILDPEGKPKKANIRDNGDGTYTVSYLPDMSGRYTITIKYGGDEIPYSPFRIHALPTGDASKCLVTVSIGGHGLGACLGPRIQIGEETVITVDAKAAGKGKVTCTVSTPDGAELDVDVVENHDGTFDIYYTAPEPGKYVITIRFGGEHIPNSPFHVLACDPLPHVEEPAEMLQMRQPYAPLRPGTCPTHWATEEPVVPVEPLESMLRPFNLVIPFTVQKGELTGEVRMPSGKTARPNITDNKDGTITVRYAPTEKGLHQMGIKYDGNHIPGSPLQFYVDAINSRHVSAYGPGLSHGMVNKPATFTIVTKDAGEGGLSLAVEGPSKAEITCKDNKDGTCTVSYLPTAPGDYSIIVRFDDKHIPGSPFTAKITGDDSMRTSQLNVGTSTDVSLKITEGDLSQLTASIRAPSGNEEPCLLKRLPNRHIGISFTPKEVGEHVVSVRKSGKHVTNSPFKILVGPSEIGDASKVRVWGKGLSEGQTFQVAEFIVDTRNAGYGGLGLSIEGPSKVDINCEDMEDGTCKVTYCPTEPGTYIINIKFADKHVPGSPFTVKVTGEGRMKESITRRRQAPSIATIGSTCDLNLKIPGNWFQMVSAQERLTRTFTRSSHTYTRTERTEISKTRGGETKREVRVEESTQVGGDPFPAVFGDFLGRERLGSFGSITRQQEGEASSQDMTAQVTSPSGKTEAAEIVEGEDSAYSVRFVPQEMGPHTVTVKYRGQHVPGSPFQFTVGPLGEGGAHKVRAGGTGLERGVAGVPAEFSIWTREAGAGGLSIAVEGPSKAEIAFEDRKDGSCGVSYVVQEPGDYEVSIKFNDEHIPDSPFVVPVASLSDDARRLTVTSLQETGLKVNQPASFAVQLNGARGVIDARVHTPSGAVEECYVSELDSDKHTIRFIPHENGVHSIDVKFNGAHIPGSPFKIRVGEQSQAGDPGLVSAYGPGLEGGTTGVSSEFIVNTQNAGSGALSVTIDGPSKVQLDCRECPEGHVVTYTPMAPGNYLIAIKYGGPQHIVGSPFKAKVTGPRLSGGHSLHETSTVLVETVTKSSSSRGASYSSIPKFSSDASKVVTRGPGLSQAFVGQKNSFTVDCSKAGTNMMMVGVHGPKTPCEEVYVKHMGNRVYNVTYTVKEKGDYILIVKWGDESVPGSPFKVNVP
UniProt P35385: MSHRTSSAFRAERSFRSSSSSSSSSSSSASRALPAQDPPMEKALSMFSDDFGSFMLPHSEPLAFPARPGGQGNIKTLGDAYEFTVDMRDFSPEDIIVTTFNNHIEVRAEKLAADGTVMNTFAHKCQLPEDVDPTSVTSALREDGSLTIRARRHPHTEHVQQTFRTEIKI

Key:
[1] = biological target: filamin C (FLNC), endogenous in mouse ventricular tissue (mouse (endogenous in ventricular tissue)) (UniProt Q8VHX6); experiment: co-IP; anti-FLNC antibody 1899 and Protein G beads on mouse heart lysates (wild-type and MLP KO), 900 μg total protein, IP buffer with 1% Triton X-100, 0.5% NP-40; blot for HSPB7; isotype control antibody
[2] = biological target: HSPB7ACD (α-crystallin domain, residues 78-162 of isoform 2) (human) (UniProt Q9UBY9); experiment: native MS; each HSPB7 construct alone at ~10 μM; 200 mM ammonium acetate pH 6.9 (full-length HSPB7: 1 M ammonium acetate pH 6.9); both purified
[3] = biological target: HSPB7ΔN (residues 78-175 of isoform 2) (human) (UniProt Q9UBY9); experiment: as above

“HSPB7, endogenous in mouse ventricular tissue (from UniProt P35385 1-169)” was tested, and the binding [1] was “binds”.

With “HSPB7ACD (α-crystallin domain, residues 78-162 of isoform 2) (from UniProt Q9UBY9-2 78-162) (domain or fragment)” the binding [2] was “no binding (tested: ~10 μM)”.

In the case of “HSPB7ΔN (residues 78-175 of isoform 2) (from UniProt Q9UBY9-2 78-175) (domain or fragment)”, the binding [3] was “no binding (tested: ~10 μM)”.
